Values from PubChem BioAssay AID1259265 (Sanger Institute, 2017)

Test: 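Validate synthetic lethal siRNA and anchor drug combinations in colorectal cancer cells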 (follow-up of hits)
Cells: SW620 human colorectal cancer cells
Reagent: single siRNA against human genes
Treatment: anchor drug given a day after transfection: BYL719 at 1 µM, cetuximab at 5 µg/ml, trametinib at 10 nM; DMSO alone as the comparison arm
Detection: 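Viability normalised to control pool 2 (non-targeting) and averaged over replicates; synergy score compares combined siRNA and drug effect against each effect alone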
Direction: synergy score with trametinib: higher = stronger synergy (synthetic lethal) with trametinib; synergy score with BYL719: higher = stronger synergy (synthetic lethal) with BYL719; synergy score with cetuximab: higher = stronger synergy (synthetic lethal) with cetuximab; viability, siRNA alone (DMSO) and viability, siRNA plus trametinib: higher = more surviving cells
Rule for the call: 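Synergistic (synthetic lethal) when the synergy score tops 0.10 with trametinib, BYL719 or cetuximab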
Here is a random part of 160 reagents. Over the whole deposit, 31 (19%) got an active call. 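Calls refer to single siRNAs; agreement across several siRNAs per gene and other cell lines is not shown.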 Viability is capped at 1. Not stated in the record: the amount of reagent, the time to read-out.

gene symbol	PubChem SID	synergy score with trametinib	synergy score with BYL719	synergy score with cetuximab	viability, siRNA alone (DMSO) (fraction of control)	viability, siRNA plus trametinib (fraction of control)	outcome
CAMK2N1	SID134276917	-0.00214	-0.0349	-0.184	0.929	0.506	inactive
CAMK2N1	SID134276918	-0.245	0.197	-0.248	0.856	0.709	
CAMK2N1	SID134276919	-0.0464	-0.181	-0.215	0.86	0.513	inactive
CAMK2N1	SID134276920	-0.133	-0.163	-0.0592	0.494	0.401	inactive
PLK1	SID56475783	-0.00709	-0.0327	-0.0635	0.156	0.0918	inactive
PLK1	SID56475784	-0.0166	-0.0506	0.0373	0.213	0.132	inactive
PLK1	SID56475785	0.00479	-0.0316	-0.0164	0.221	0.115	inactive
PLK1	SID56475786	-0.00941	-0.073	-0.0401	0.0917	0.0591	inactive
MARK3	SID56475931	-0.0626	-0.167	-0.0494	1	0.605	inactive
MARK3	SID56475932	-0.0204	-0.177	-0.122	1	0.563	inactive
MARK3	SID56475933	-0.0287	-0.372	-0.0801	0.905	0.52	inactive
MARK3	SID56475934	0.178	-0.15	-0.141	0.977	0.353	active

Part of the list above in another layout:
{"gene symbol":"CAMK2N1","PubChem SID":"SID134276917","synergy score with trametinib":-0.00214,"synergy score with BYL719":-0.0349,"synergy score with cetuximab":-0.184,"viability, siRNA alone (DMSO) (fraction of control)":0.929,"viability, siRNA plus trametinib (fraction of control)":0.506,"outcome":"inactive"}
{"gene symbol":"CAMK2N1","PubChem SID":"SID134276918","synergy score with trametinib":-0.245,"synergy score with BYL719":0.197,"synergy score with cetuximab":-0.248,"viability, siRNA alone (DMSO) (fraction of control)":0.856,"viability, siRNA plus trametinib (fraction of control)":0.709}
